According to PMC5988664:
These are yes or no findings as the source states them, for the method shown. In cells and extracts the contact can be indirect. A yes stands for co-enrichment or nearness to the bait. Other partners may have been found.

Protein sequences, listed by entry. Tags and fused reporters are not part of them. Residues count along the entry.
UniProt P10852: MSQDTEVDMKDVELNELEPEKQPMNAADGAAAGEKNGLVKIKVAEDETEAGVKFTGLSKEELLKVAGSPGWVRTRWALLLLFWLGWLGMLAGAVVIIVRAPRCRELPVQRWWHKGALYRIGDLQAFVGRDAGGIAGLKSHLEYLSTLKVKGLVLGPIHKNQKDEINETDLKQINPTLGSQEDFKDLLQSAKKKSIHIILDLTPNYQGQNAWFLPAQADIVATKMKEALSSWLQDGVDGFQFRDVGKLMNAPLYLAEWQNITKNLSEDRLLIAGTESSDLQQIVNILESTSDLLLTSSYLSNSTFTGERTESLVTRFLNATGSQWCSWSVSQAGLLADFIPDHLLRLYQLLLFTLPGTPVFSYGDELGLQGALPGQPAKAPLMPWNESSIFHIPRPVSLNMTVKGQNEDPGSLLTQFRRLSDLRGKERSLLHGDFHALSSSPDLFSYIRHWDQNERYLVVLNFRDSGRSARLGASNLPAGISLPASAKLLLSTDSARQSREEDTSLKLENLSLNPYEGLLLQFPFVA
UniProt P35441, residues 19-1170: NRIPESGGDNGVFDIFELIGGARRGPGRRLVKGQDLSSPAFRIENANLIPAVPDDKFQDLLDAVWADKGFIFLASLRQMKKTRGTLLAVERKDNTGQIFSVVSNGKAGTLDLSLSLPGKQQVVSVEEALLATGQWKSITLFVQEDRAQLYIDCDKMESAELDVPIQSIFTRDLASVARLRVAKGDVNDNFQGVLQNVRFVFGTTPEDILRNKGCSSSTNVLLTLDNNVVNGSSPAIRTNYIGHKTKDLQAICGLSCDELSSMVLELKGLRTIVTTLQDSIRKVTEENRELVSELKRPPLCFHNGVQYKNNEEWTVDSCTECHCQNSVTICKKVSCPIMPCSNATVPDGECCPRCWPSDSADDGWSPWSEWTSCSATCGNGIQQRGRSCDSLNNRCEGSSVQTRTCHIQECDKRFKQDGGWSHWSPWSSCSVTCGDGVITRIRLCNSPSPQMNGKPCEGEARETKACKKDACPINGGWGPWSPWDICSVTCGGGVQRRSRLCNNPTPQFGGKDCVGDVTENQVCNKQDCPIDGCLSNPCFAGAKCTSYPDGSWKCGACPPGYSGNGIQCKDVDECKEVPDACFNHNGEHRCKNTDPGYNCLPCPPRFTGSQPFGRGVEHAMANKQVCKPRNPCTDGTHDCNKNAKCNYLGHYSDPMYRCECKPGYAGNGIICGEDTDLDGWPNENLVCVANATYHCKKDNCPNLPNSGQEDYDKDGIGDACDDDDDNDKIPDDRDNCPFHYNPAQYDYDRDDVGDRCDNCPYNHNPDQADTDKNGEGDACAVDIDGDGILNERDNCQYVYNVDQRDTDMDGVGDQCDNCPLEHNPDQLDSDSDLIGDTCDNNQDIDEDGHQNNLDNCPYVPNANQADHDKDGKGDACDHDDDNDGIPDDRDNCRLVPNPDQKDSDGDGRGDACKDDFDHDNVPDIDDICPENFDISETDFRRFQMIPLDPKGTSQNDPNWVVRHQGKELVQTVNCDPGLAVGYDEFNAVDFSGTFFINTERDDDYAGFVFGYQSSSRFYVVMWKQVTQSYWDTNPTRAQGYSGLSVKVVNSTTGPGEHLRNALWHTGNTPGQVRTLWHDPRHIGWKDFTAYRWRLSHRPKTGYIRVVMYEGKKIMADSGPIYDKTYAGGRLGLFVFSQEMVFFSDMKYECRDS
UniProt Q9D771: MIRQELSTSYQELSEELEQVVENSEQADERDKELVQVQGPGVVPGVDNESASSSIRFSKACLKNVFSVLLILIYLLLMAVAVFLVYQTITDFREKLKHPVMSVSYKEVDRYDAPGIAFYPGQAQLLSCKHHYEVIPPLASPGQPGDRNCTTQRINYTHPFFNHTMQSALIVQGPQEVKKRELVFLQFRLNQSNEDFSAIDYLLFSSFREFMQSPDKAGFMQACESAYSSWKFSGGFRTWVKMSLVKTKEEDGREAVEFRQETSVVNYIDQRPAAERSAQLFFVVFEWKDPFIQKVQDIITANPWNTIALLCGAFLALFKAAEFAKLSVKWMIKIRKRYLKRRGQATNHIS
UniProt P14211, residues 18-416: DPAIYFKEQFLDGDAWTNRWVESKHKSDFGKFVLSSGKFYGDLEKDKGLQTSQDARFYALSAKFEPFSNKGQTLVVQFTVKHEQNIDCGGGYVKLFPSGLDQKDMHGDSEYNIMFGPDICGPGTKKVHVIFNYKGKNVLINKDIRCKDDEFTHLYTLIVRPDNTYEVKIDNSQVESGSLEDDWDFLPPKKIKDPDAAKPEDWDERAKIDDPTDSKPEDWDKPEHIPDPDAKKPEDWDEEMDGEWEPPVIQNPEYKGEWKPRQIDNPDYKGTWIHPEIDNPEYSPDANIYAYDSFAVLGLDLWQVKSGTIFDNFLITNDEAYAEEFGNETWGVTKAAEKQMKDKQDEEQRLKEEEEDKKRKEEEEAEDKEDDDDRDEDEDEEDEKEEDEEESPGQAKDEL
UniProt Q07079, residues 20-271: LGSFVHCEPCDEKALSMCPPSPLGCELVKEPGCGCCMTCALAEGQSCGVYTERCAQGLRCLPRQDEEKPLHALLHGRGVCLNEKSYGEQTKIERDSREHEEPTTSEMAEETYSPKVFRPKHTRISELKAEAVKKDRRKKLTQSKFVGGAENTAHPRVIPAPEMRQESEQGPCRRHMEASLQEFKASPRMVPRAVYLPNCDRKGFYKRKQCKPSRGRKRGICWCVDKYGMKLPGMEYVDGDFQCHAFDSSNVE
UniProt Q9Z127: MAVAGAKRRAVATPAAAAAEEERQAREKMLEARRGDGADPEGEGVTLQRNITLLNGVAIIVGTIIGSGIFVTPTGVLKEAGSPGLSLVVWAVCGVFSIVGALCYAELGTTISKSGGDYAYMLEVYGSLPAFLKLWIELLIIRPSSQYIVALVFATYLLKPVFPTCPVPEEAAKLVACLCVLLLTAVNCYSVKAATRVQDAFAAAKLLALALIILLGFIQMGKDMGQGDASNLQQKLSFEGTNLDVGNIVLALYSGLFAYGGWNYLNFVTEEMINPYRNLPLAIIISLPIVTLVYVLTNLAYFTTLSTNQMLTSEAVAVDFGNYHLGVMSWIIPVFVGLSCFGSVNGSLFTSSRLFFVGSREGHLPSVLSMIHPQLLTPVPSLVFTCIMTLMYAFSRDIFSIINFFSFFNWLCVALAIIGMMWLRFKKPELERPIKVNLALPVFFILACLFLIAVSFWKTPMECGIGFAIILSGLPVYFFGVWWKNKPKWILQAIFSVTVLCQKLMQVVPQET
UniProt P13595, residues 20-1115: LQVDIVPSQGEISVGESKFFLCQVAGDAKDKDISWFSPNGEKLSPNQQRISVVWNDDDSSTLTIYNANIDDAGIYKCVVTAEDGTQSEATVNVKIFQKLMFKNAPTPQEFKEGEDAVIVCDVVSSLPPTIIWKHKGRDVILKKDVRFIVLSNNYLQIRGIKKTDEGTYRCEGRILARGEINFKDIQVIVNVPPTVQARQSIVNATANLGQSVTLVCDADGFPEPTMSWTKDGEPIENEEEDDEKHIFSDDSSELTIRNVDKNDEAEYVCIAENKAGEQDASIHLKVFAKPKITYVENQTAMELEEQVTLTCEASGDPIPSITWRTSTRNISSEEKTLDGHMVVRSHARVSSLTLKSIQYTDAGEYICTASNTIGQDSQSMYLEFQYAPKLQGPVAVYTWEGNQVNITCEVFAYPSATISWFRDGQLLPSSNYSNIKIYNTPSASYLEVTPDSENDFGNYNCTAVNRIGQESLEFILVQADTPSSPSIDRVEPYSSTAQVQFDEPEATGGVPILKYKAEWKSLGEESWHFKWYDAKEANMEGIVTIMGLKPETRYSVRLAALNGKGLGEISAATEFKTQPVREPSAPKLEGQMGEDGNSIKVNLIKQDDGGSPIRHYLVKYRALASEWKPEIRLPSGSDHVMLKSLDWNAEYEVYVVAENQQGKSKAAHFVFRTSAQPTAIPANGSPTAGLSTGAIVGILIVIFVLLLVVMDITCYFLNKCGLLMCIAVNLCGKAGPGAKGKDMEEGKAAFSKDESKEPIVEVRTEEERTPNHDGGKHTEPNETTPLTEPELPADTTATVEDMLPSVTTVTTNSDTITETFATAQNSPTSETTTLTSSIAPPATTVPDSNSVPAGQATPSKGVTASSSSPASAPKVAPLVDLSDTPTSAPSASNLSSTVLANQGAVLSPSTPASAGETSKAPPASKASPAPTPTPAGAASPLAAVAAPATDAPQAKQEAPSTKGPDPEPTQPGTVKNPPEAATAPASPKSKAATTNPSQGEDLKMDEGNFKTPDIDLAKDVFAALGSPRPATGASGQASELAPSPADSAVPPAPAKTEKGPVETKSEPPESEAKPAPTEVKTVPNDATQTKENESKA
UniProt P09103, residues 20-509: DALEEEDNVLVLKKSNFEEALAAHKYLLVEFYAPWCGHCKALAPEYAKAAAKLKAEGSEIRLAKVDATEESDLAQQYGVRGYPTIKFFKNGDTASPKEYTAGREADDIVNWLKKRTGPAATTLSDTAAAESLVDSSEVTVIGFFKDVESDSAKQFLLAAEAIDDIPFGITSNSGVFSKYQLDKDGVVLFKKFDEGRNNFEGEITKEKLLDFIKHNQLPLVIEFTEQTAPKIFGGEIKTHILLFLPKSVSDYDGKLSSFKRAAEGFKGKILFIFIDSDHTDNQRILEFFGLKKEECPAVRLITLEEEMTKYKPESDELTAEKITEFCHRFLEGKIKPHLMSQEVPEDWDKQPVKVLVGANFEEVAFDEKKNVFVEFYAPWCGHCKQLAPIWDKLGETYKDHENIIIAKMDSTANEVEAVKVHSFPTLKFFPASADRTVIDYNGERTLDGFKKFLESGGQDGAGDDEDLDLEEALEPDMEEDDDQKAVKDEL
UniProt Q69ZU6, residues 39-1645: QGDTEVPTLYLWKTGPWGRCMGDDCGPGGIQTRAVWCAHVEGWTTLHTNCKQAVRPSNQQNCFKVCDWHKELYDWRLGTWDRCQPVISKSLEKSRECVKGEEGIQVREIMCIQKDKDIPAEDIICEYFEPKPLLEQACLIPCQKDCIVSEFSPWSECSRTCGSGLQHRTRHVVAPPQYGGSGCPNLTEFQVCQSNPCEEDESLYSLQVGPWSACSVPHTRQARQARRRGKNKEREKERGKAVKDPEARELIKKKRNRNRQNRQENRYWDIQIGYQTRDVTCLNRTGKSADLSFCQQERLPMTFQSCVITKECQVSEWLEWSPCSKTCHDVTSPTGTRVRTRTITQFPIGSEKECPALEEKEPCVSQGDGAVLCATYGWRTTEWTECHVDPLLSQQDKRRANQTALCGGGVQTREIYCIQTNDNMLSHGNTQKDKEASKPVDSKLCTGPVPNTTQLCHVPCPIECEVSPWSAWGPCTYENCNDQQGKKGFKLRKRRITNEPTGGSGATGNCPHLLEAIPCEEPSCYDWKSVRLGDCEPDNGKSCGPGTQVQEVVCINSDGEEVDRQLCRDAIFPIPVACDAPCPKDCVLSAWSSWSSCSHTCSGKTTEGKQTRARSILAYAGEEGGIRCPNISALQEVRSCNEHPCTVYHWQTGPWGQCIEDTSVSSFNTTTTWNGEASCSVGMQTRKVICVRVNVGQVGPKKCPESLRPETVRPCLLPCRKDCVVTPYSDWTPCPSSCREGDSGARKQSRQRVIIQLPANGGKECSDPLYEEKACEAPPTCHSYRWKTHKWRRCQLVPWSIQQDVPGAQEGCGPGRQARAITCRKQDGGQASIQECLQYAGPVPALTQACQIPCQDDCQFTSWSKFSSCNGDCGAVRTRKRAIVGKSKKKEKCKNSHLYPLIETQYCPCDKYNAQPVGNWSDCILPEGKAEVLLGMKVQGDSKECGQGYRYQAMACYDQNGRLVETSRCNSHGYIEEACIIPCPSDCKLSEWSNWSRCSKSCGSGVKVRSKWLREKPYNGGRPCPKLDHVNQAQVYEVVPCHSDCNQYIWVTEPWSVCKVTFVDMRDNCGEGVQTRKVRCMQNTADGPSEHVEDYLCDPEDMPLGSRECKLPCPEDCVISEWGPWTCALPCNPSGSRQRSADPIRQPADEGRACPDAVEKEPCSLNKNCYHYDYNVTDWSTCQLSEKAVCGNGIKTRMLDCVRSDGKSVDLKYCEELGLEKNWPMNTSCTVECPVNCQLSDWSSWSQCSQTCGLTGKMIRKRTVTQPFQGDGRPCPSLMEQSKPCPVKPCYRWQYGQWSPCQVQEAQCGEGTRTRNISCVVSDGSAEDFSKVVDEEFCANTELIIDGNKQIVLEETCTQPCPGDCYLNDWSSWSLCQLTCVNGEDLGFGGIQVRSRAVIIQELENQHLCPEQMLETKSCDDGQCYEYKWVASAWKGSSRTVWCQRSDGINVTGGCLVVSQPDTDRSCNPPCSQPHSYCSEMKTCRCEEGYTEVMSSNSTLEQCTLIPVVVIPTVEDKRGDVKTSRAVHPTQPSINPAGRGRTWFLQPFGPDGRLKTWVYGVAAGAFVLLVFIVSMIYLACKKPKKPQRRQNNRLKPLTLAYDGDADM
UniProt Q9R0Q3, residues 21-201: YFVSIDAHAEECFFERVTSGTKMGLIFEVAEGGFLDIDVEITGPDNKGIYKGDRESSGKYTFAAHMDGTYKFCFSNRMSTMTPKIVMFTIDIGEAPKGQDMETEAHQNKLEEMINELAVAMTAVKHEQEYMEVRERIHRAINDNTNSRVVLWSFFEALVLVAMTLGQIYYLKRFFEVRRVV

Target: prion protein (PrP) (mouse (endogenous in NMuMG, C2C12, N2a and CAD5)) (UniProt P04925)
Test: affinity purification with mass spectrometry

Row | Molecule | binding
1 | 4F2 cell-surface antigen heavy chain (Slc3a2) (from UniProt P10852 1-526) | binds
2 | Thbs1 (from UniProt P35441 19-1170) | binds
3 | Tmem206 (from UniProt Q9D771 1-350) | binds
4 | calreticulin (Calr) (from UniProt P14211 18-416) | binds
5 | galectin-1 (Lgals1) (from UniProt P16045 1-135) | binds
6 | insulin-like growth factor-binding protein 5 (Igfbp5) (from UniProt Q07079 20-271) | binds
7 | large neutral amino acid transporter small subunit 1 (Slc7a5) (from UniProt Q9Z127 1-512) | binds
8 | neural cell adhesion molecule 1 (Ncam1) (from UniProt P13595 20-1115) | binds
9 | protein disulfide isomerase (P4hb) (from UniProt P09103 20-509) | binds
10 | thrombospondin type-1 domain containing protein 7 A (Thsd7a) (from UniProt Q69ZU6 39-1645) | binds
11 | transmembrane emp24 domain-containing protein 2 (Tmed2) (from UniProt Q9R0Q3 21-201) | binds
12 | ZIP10 zinc transporter (Zip10) (protein, UniProt Q6P5F6 26-833) HEDHDHGPEELHRHHRGMTESESSKFSVQDAENEKKYYIEKLFDRYGENGRLSFFGLEKLLTNLGLGEIKVVEINHEDLGHDHVSHLDILAVQEGKHFHSHTHQHFHNHLNAENHTTTSVTSKRNHKCDPEKEAAELPIKADDKHLHDRNHRFHHRHRLHHHLDHNTTRHVHNDSVAHSEHGEPGHSPSPETNKTQEQSEVKSVKVRRKEKGKRKKENSEVNTPGFLPNHDHSEQYEHNRVHKLDRVHSPGHPHAHLPEHSGHELGHGHQELDPDNEGELRHTRKREAPHVRKSAIYSTPSHKDQSEDDRQHECLNVTQLLKHFGLGPNSPISPDLFTYLCPALLYQIDSRLCIEHFDKLLVEDLNKDKTLVPEDKTNIGASAWICGIISITVISLLSLLGVILVPIINQGCFKFLLTFLVALAVGTMSGDALLHLLPHSQGGHDHSHQHTHGHGHSHGHESKEFLEEYDAVLKGLVALGGIYLLFIIEHCIRMFKHYKQQRGKQKWFMKQSTEESTIGRKLSDHKLNSTPDADWLQLKPLAGTDDSVVSEDRLNETELTDLEAQQESPPKNYLGVEEEKIMDHSHSDGLHTIHEHEVHVTSHNHHDEDKAVLRKHSHQWHHRHAHHSHGPCHSGSDLKETGIANIAWMVIMGDGIHNFSDGLAIGAAFSAGLTGGISTSIAVFCHELPHELGDFAVLLKAGMTVKQAIVYNLLSAMMAYIGMLIGTAVGQYANNITLWIFAITAGMFLYVALVDMLPEMLHGDGDHEEHGFCPVGQFILQNLGLLFGFAIMLVIALYEDKIVFDIQF | binds
13 | basigin (Bsg) (protein, UniProt P18572 22-389) AAGFLKAPLSQERWAGGSVVLHCEAVGSPIPEIQWWFEGNAPNDSCSQLWDGARLDRVHIHAAYRQHAASSLSVDGLTAEDTGTYECRASSDPDRNHLTRPPRVKWVRAQASVVVLEPGTIQTSVQEVNSKTQLTCSLNSSGVDIVGHRWMRGGKVLQEDTLPDLHTKYIVDADDRSGEYSCIFLPEPVGRSEINVEGPPRIKVGKKSEHSSEGELAKLVCKSDASYPPITDWFWFKTSDTGEEEAITNSTEANGKYVVVSTPEKSQLTISNLDVNVDPGTYVCNATNAQGTTRETISLRVRSRMAALWPFLGIVAEVLVLVTIIFIYEKRRKPDQTLDEDDPGAAPLKGSGTHMNDKDKNVRQRNAT | binds
14 | Cd109 (protein, UniProt Q8R422 22-1419) APGSRFLVTAPGIIRPGANVTIGVDLLENSPPQVLVKAQVFKIASNKSRSILEAEGVFHRGHFKTLVLPALPLSSADKIYELHINGQSENEIVFSNRTRLTFESKSISVLIQTDKAFYKPKQEVKFRVLTLCSDLKPYRTSVDIFIKDPKSNVIQQWFSQKGDLGVVSKTFQLSSNPIFGDWSIQVQVNDQQYYQSFQVLEYVLPKFEVTVQTPLYCSLKSKQLNGSVIAKYTYGKPVKGSLSLTFLPLSFWGKKKNITKSFEINGFANFSFDNYEMKKVMNLKPLTDVSEGSYENVDPSFPGPAEIIATVTESLTGISRMASTNVFFKQHDYIIEIFDYTTVLKPSLNFTATVKVSRSDGNQLTPEEIENDLVTVVTQRKNNHPESQRDQEMDYIQTVNYTIPQNGIIKIEFPVMSISGELQLKAYFLDGTSSVTVHSMFTSPSKTYIQLKTRDEYIKVGSPFDLMVSGNRQFKDLSYMVISKGQLVAAGKQSSRTFSLTPEASWAPKACIIAYYIAEDGEIINDILKIPVQLVFENKVKLFWSKPTVKPSDKVSLRISATQSDSLVGIVAVDKSVTLMENSNSITMETMVHELELYNTEYYLGMFMNSFAVFQECGLWVLTDATLIRDSIDEVYDTEEYSERFAEENEANLVDFEDASSVNNVHVRKNFPETWIWLDAYMGSKIYEEFEVTVPDSITSWVASAFVISEDLGFGLTTVPAELQAFQPFFLFLNLPYSVIRGEEFALEVSIVNYLKDTIKVVILIEESDSFDILMTSNDTNGTIYRKTVQVPRDNGVTLVFPIKPTHLGEIPITVTAASPTASDAVTQTIVVKPEGIEKSYSKSVLLDLTDSNVESKQQSMRFSFPPDTVIGSERVQITAIGDILGSSINGLSSLIRMPYGCGEQNMIYFAPNIYILDYLTKQKQLTVNLKEKALSYMRQGYQRELLYQREDGSFSAFGDIDSSGSTWLSAFVLRCFLEADYYIDIDQDVLHRTYTWLNAHKKFNGEFWEPGRVIHSELQGGTKSPVTLTAYIVTSVLGYKKYQPNIDVQDSIKFLEFEFSRGISDNYTLAIISYALSTVGSPKAEEALNLLMQRSEKEGDTQFWLSSGPALSGSWQPRSVDIEIAAYALLAHTLHHVSEGIPVMRWLIQQRNSLGGFVSTQDTVVALKALSEFSALVHKENTDIQLTVTGPGIPRSIHFRIDSQNLFLLHQEELHALDPITVNVSAHGSGFAICQLNVDYNVKGSGSSKRRRSTENQEVFDLDVIVNNEDDISHLNLNVCTSHLGSERTGMVLMEVNLLSGFSASSDSIPLSETLKKVEYDNGKLNLYLDSVNESQFCVNIPTVRDYKVSNIRDGSVSVMDYYEPRRQAVRSYNTQVKLSSCYLSPDTNCKSHTDGA | binds
15 | glypican-1 (Gpc1) (protein, UniProt Q9QZF2 24-529) DPASKSRSCSEVRQIYGAKGFSLSDVPQAEISGEHLRICPQGYTCCTSEMEENLANHSRMELESALHDSSRALQATLATQLHGIDDHFQRLLNDSERTLQEAFPGAFGDLYTQNTRAFRDLYAELRLYYRGANLHLEETLAEFWARLLERLFKQLHPQLLPDDYLDCLGKQAEALRPFGDAPRELRLRATRAFVAARSFVQGLGVASDVVRKVAQVPLAPECSRAIMKLVYCAHCRGVPGARPCPDYCRNVLKGCLANQADLDAEWRNLLDSMVLITDKFWGPSGAESVIGGVHVWLAEAINALQDNKDTLTAKVIQACGNPKVNPHGSGPEEKRRRGKLALQEKPSTGTLEKLVSEAKAQLRDIQDFWISLPGTLCSEKMAMSPASDDRCWNGISKGRYLPEVMGDGLANQINNPEVEVDITKPDMTIRQQIMQLKIMTNRLRGAYGGNDVDFQDASDDGSGSGSGGGCPDDTCGRRVSKKSSSSRTPLTHALPGLSEQEGQKTS | binds
16 | Cd47 (protein, UniProt Q61735 19-303) QLLFSNVNSIEFTSCNETVVIPCIVRNVEAQSTEEMFVKWKLNKSYIFIYDGNKNSTTTDQNFTSAKISVSDLINGIASLKMDKRDAMVGNYTCEVTELSREGKTVIELKNRTVSWFSPNEKILIVIFPILAILLFWGKFGILTLKYKSSHTNKRIILLLVAGLVLTVIVVVGAILLIPGEKPVKNASGLGLIVISTGILILLQYNVFMTAFGMTSFTIAILITQVLGYVLALVGLCLCIMACEPVHGPLLISGLGIIALAELLGLVYMKFVASNQRTIQPPRNR | binds
17 | transmembrane emp24 domain-containing protein 9 (Tmed9) (protein, UniProt Q99KF1 38-235) LYFHIGETEKKCFIEEIPDETMVIGNYRTQLYDKQREEYQPATPGLGMFVEVKDPEDKVILARQYGSEGRFTFTSHTPGEHQICLHSNSTKFSLFAGGMLRVHLDIQVGEHANDYAEIAAKDKLSELQLRVRQLVEQVEQIQKEQNYQRWREERFRQTSESTNQRVLWWSILQTLILVAIGVWQMRHLKSFFEAKKLV | binds
18 | transmembrane emp24 domain-containing protein 10 (Tmed10) (protein, UniProt Q9D1D4 32-219) ISFHLPVNSRKCLREEIHKDLLVTGAYEITDQSGGAGGLRTHLKITDSAGHILYAKEDATKGKFAFTTEDYDMFEVCFESKGTGRIPDQLVILDMKHGVEAKNYEEIAKVEKLKPLEVELRRLEDLSESIVNDFAYMKKREEEMRDTNESTNTRVLYFSIFSMFCLIGLATWQVFYLRRFFKAKKLIE | binds
